The test concerns the target T1, GCase_(Leu444Pro)-HA (human) (UniProt P04062).
T1 sequence: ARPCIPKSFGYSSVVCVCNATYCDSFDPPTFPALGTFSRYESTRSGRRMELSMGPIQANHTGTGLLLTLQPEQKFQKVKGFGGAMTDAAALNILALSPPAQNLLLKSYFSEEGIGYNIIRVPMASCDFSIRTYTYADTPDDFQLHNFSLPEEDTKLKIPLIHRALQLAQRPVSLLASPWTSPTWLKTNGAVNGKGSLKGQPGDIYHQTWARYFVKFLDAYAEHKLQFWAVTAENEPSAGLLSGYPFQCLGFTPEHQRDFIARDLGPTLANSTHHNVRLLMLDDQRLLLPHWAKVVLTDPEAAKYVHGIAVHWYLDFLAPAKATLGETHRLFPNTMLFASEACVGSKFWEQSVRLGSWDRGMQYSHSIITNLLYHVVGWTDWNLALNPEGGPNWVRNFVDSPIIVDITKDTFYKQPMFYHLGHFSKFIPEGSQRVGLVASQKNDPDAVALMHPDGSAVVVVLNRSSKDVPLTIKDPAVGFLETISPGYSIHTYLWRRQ
Briefly: co-IP; HEK293 cells transiently expressing GCase-HA variants; lysate incubated with bait antibody and protein A beads, 4 °C, 4 h; washed with 0.5% Triton X-100 in HBS pH 7.4; Western blot for CNX, BiP and GCase-HA.

Chains of the proteins cited; added tags and fusions are not shown. Residues count along the entry.
UniProt P11021, residues 19-654: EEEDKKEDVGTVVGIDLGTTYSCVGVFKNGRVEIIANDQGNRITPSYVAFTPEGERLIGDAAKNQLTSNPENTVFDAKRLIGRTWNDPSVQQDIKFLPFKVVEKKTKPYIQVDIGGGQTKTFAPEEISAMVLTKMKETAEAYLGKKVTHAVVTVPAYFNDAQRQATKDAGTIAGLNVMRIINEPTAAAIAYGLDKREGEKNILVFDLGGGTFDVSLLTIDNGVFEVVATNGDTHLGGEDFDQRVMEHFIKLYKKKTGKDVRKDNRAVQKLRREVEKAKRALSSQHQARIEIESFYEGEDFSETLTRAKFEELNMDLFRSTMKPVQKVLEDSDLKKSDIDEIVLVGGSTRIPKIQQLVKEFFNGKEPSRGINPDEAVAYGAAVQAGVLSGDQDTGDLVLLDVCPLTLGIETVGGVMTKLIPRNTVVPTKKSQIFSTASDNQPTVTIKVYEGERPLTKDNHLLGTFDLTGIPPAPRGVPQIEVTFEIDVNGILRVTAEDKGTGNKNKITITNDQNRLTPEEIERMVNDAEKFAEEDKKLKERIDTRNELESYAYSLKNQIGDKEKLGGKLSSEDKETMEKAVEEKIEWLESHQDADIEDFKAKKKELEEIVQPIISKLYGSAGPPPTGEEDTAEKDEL

Results are given in words; binding and its absence hold for the method and conditions named. In cells and extracts the contact can be indirect. Some binding calls cover weakened binding; strength is not graded here. Where a sequence is shown, tags or fusion partners need not be part of it.

Take “binding immunoglobulin protein (BiP), endogenous in HEK293 cells (from UniProt P11021 19-654)”: the binding result is “binds”.

The values are drawn from paper PMC12072338, “Allosteric Modulation of GCase Enhances Lysosomal Activity and Reduces ER Stress in GCase-Related Disorders” (International Journal of Molecular Sciences, 2025).
